Results deposited as PubChem BioAssay AID504744 (Drosophila RNAi Screening Center, 2011).

- Test: 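Uncover factors, including feedback loops, that control dAkt activation in fly cells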 (primary screen)
- Cells: Drosophila Kc167 cells
- Knock-down reagent: long dsRNA against Drosophila genes, 250 ng dsRNA per well of a 384-well plate
- Duration: 3 days of knock-down, then overnight serum-free starvation before stimulation
- Conditions: bovine insulin at 387 nM for 10 minutes after 12 h without serum
- Read-out: 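In-cell antibody fluorescence for phospho-dAkt in each well over DNA-dye signal, with log2 residuals expressed as z-scores adjusted for cell count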
- Rule for the call: 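Under insulin, a gene counts as a hit if the average z-score of two replicates lies above 2.5 or below -2.5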
In all, the deposit lists about 23,000 reagents; this is a random part of those with a known target gene and a result. Of all reagents, 98 (0.43%) got an active call. 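Only hit calls are given; the phospho-dAkt signals, z-scores and hit direction were not deposited.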 A plus sign joins genes that one reagent is predicted to hit.

target gene | amplicon | activity call
CG15107 | DRSC06534 | inactive
l(2)k14505 | DRSC03106 | inactive
Nct | DRSC16172 | inactive
CG14840 | DRSC14964 | inactive
Osi22 | DRSC16442 | inactive
SpdS | DRSC16408 | inactive
CG10804 | DRSC17764 | inactive
Tango10 | DRSC19807 | inactive
ana | DRSC07579 | inactive
CG3581 | DRSC15499 | inactive
Nap1 | DRSC04626 | inactive
CR31032 | DRSC22457 | inactive
ChT | DRSC16296 | inactive
vari | DRSC03202 | inactive
Ugt317A1 | DRSC04470 | inactive
CG9072 | DRSC20147 | inactive
kappaTry | DRSC06146 | inactive
Asator | DRSC17136 | inactive
MED14 | DRSC08235 | inactive
rn | DRSC12500 | inactive
rn | DRSC12543 | inactive
rn | DRSC12544 | inactive
rn | DRSC12546 | inactive
rn | DRSC22291 | inactive
mRpL22 | DRSC19915 | inactive
CG42383 | DRSC21733 | inactive
bdl | DRSC00271 | inactive
CG1233 | DRSC08269 | inactive
Dsor1 | DRSC18462 | inactive
CG42382 | DRSC07671 | inactive
CG9915 | DRSC21565 | inactive
Atg10 + CG12822 | DRSC06796 | inactive
CG33191 + Pif1B | DRSC12706 | inactive
Nprl3 | DRSC11044 | inactive
CG5863 | DRSC15898 | inactive
Gcn5 | DRSC11248 | inactive
CG6280 | DRSC06972 | inactive
14-3-3epsilon | DRSC16370 | inactive
CG33777 | DRSC08107 | inactive
CG42527 (retired record) + Hr4 | DRSC18495 | inactive
CG42527 (retired record) + Hr4 | DRSC22269 | inactive
CG42527 (retired record) + Hr4 | DRSC22677 | inactive
CG33771 | DRSC11718 | inactive
Liprin-beta | DRSC09795 | inactive
Mcm7 | DRSC11219 | inactive
Tsp42El | DRSC06186 | inactive
CG32055 | DRSC10666 | inactive
CG3894 | DRSC01762 | inactive
CG3894 | DRSC04012 | inactive
CG3894 | DRSC04429 | inactive
obst-A | DRSC20543 | inactive
CG10939 | DRSC06019 | inactive
CG10939 | DRSC21734 | inactive
CG18343 | DRSC06726 | inactive
5-HT7 | DRSC12635 | inactive
CG6325 | DRSC16020 | inactive
CG32835 (retired record) | DRSC22693 | inactive
Or42a | DRSC04912 | inactive
Wnt10 | DRSC00990 | inactive
Wnt10 | DRSC02797 | inactive
hec | DRSC19895 | inactive
CG17078 | DRSC00484 | inactive
Gr58c | DRSC04136 | inactive
Tbc1d15-17 | DRSC00313 | inactive
phu | DRSC16390 | inactive
scpr-B | DRSC15200 | inactive
Naa40 | DRSC16265 | inactive
Nep5 | DRSC16004 | inactive
Ccp84Ae | DRSC12590 | inactive
MED21 | DRSC20932 | inactive
TBC1D16 | DRSC02841 | inactive
ACXD | DRSC07843 | inactive
nrm | DRSC11597 | inactive
nrm | DRSC11599 | inactive
nrm | DRSC11897 | inactive
emp | DRSC04019 | inactive
emp | DRSC04683 | inactive
LysP | DRSC08676 | inactive
CG13795 | DRSC02299 | inactive
Gat | DRSC17144 | inactive
CecC | DRSC16606 | inactive
Or19b + Or19a | DRSC22604 | inactive
bond | DRSC16135 | inactive
sns | DRSC06423 | inactive
sns | DRSC07687 | inactive
sns | DRSC07688 | inactive
sns | DRSC07689 | inactive
sns | DRSC07691 | inactive
sns | DRSC07692 | inactive
Tim23 | DRSC21240 | inactive
mRpS16 | DRSC07152 | inactive
Mat89Ba | DRSC14540 | inactive
GstO1 | DRSC10688 | inactive
Ku80 | DRSC02699 | inactive
CG17560 | DRSC15242 | inactive
CG4020 | DRSC18337 | inactive
CG32027 (retired record) | DRSC09571 | inactive
Amun | DRSC19847 | inactive
CG18171 | DRSC08524 | inactive
CG4250 | DRSC04455 | inactive
CG34280 | DRSC13229 | inactive
CG31686 (retired record) | DRSC00102 | inactive
CG31178 | DRSC14590 | inactive
Ir60b | DRSC04217 | inactive
CG14007 | DRSC02339 | inactive
Listericin | DRSC07334 | inactive
CG16782 | DRSC18118 | inactive
Eip75B | DRSC11161 | inactive
Tdh | DRSC11788 | inactive
alpha-Est6 | DRSC12618 | inactive
disco-r | DRSC20173 | inactive
disco-r | DRSC20174 | inactive
chic | DRSC03507 | inactive
CG6785 | DRSC02993 | inactive
CG12998 | DRSC19518 | inactive
CG15888 | DRSC15125 | inactive
ATP8B | DRSC14961 | inactive
TFAM | DRSC15552 | inactive
Cadps | DRSC21057 | inactive
Cadps | DRSC22200 | inactive
CG18336 | DRSC06334 | inactive
Mst87F | DRSC16747 | inactive
CG11019 (retired record) | DRSC02117 | inactive
CG7963 | DRSC16355 | inactive
tRNA:Leu-CAA-2-3 | DRSC13633 | inactive
CG33127 | DRSC00011 | inactive
sowah | DRSC09186 | inactive
sowah | DRSC09758 | inactive
ODA-Dnal1 | DRSC07270 | inactive
stwl | DRSC11400 | inactive
CG10068 | DRSC12508 | inactive
Ssl1 | DRSC11634 | inactive
Klp59C | DRSC04348 | inactive
Ak1 | DRSC10248 | inactive
Max | DRSC11218 | inactive
Kpc2 | DRSC07635 | inactive
CG2533 | DRSC19855 | inactive
RhoGAP54D | DRSC06990 | inactive
Cpr57A + Obp57d | DRSC06708 | inactive
Cpr57A + Obp57d | DRSC22719 | inactive
lncRNA:CR32385 | DRSC22966 | inactive
Syt14 | DRSC12331 | inactive
CG11714 | DRSC09857 | inactive
CG31997 | DRSC17105 | inactive
CG18764 | DRSC15391 | inactive
CG15449 | DRSC20521 | inactive
Mst84Dc | DRSC12599 | inactive
CG14434 | DRSC17927 | inactive
Rab9Db + Rab9D + Rab9Fa + 1 more | DRSC17662 | inactive
Alg-2 | DRSC07799 | inactive
MED23 + CG3700 | DRSC04406 | inactive
MED23 + CG3700 | DRSC04407 | inactive
CG31031 (retired record) | DRSC13964 | inactive
Sec61beta | DRSC07548 | inactive
Sec61beta | DRSC21512 | inactive
CG7778 | DRSC03067 | inactive
Arfrp1 | DRSC18417 | active
Lint-1 | DRSC19822 | inactive
Sgs7 | DRSC11281 | inactive
CG5199 | DRSC11770 | inactive
Gp150 | DRSC04618 | inactive
intr | DRSC14528 | inactive
CycA | DRSC09132 | inactive
CycA | DRSC11123 | inactive
CG33096 | DRSC14440 | inactive
CG17147 | DRSC10249 | inactive
CG13285 | DRSC09960 | inactive
CG13653 | DRSC14653 | inactive
COX6B | DRSC19590 | inactive
CG13738 | DRSC10065 | inactive
Dhc1 | DRSC16503 | inactive
Spn28Dc | DRSC03029 | inactive
CG2267 | DRSC15435 | inactive
rumi | DRSC15177 | inactive
CG32445 | DRSC11678 | inactive
CG11373 | DRSC12170 | inactive
CG34283 | DRSC13313 | inactive
Rpt6 | DRSC20571 | inactive
Dhod | DRSC16647 | inactive
Ref2 | DRSC02563 | inactive
Kyat | DRSC16147 | inactive
Trxr2 | DRSC11900 | inactive
Tsp29Fa | DRSC03232 | inactive
CG33178 | DRSC19950 | inactive
CG1698 | DRSC06640 | inactive
CG2861 | DRSC18229 | inactive
Hmgcl | DRSC02051 | inactive
chico | DRSC03531 | inactive
CG12769 | DRSC06167 | inactive
CG14258 | DRSC14753 | inactive
CG1738 | DRSC19772 | inactive
CG13955 | DRSC06443 | inactive
barr | DRSC03488 | inactive
Chro | DRSC11630 | inactive
CG10959 | DRSC17769 | inactive
Rbf | DRSC18704 | inactive
CG9664 | DRSC00725 | inactive
bonsai | DRSC04453 | inactive
CG42634 + CG42635 | DRSC02450 | inactive
CG12438 | DRSC02167 | inactive
